Measurements from US20220056087A1.
These are yes or no findings as the source states them, for the method shown. Some binding calls cover weakened binding; strength is not graded here.

Chains of the proteins cited; added tags and fusions are not shown. Residues count along the entry.
UniProt P08508, residues 31-215: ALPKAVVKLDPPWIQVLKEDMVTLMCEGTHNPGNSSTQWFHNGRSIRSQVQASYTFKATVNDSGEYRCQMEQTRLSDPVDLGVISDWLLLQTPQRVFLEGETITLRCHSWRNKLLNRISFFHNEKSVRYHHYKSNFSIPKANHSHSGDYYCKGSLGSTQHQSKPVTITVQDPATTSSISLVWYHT

What was measured:
[1] = target: mouse FcγRIIIA (immobilized on CM4 chip) (mouse) (UniProt P08508); assay: SPR (Biacore)
[2] = target: mouse FcγRIIIA (immobilized on CM4 chip) (mouse) (UniProt P08508); assay: SPR (Biacore T100), receptor amine-coupled to CM4 chip, analyte 500 nM to 1.9 nM
[3] = target: mouse FcγRIIIA (immobilized on CM4 chip) (mouse) (UniProt P08508); assay: SPR (Biacore) as in Example 4; row 'FcR3a'
[4] = target: mouse FcγRIIIA (immobilized on CM4 chip) (mouse) (UniProt P08508); assay: SPR (Biacore), receptor amine-coupled to CM4 chip

| Binder | binding [1] | binding [2] | binding [3] | binding [4] |
| --- | --- | --- | --- | --- |
| M019 stradomer (Fc fusion) ERKCCVECPPCPEPRGPTIKPCPPCKCPAPNLLGGPSVFIFPPKIKDVLMISLSPIVTCVVVDVSEDDPDVQISWFVNNVEVHTAQTQTHREDYNSTLRVVSALPIQHQDWMSGKEFKCKVNNKDLPAPIERTISKPKGSVRAPQVYVLPPPEEEMTKKQVTLTCMVTDFMPEDIYVEWTNNGKTELNYKNTEPVLDSDGSYFMYSKLRVEKKNWVERNSYSCSVVHEGLHNHHTTKSFSRTPGK | binds | binds | – | – |
| M045 F1 (highest molecular weight multimer fraction of M045c) (Fc fusion) DEPRGPTIKPCPPCKCPAPNLLGGPSVFIFPPKIKDVLMISLSPIVTCVVVDVSEDDPDVQISWFVNNVEVHTAQTQTHREDYNSTLRVVSALPIQHQDWMSGKEFKCKVNNKDLPAPIERTISKPKGSVRAPQVYVLPPPEEEMTKKQVTLTCMVTDFMPEDIYVEWTNNGKTELNYKNTEPVLDSDGSYFMYSKLRVEKKNWVERNSYSCSVVHEGLHNHHTTKSFSRTPGKERKCCVECPPCP | – | – | binds | binds |
| M045 F2 (Fc fusion) stradomer monomer: DEPRGPTIKPCPPCKCPAPNLLGGPSVFIFPPKIKDVLMISLSPIVTCVVVDVSEDDPDVQISWFVNNVEVHTAQTQTHREDYNSTLRVVSALPIQHQDWMSGKEFKCKVNNKDLPAPIERTISKPKGSVRAPQVYVLPPPEEEMTKKQVTLTCMVTDFMPEDIYVEWTNNGKTELNYKNTEPVLDSDGSYFMYSKLRVEKKNWVERNSYSCSVVHEGLHNHHTTKSFSRTPGKERKCCVECPPCP | – | – | binds | – |

The remaining lines, values ahead:

| binding [1] | binding [2] | binding [3] | binding [4] | Binder |
| --- | --- | --- | --- | --- |
| – | – | binds | – | M045 F3 (Fc fusion) stradomer monomer: DEPRGPTIKPCPPCKCPAPNLLGGPSVFIFPPKIKDVLMISLSPIVTCVVVDVSEDDPDVQISWFVNNVEVHTAQTQTHREDYNSTLRVVSALPIQHQDWMSGKEFKCKVNNKDLPAPIERTISKPKGSVRAPQVYVLPPPEEEMTKKQVTLTCMVTDFMPEDIYVEWTNNGKTELNYKNTEPVLDSDGSYFMYSKLRVEKKNWVERNSYSCSVVHEGLHNHHTTKSFSRTPGKERKCCVECPPCP |
| binds | binds | binds | – | M045c stradomer (Fc fusion) DEPRGPTIKPCPPCKCPAPNLLGGPSVFIFPPKIKDVLMISLSPIVTCVVVDVSEDDPDVQISWFVNNVEVHTAQTQTHREDYNSTLRVVSALPIQHQDWMSGKEFKCKVNNKDLPAPIERTISKPKGSVRAPQVYVLPPPEEEMTKKQVTLTCMVTDFMPEDIYVEWTNNGKTELNYKNTEPVLDSDGSYFMYSKLRVEKKNWVERNSYSCSVVHEGLHNHHTTKSFSRTPGKERKCCVECPPCP |
